Measured values as given in publication PMC7449928.
Results are given in words; binding and its absence hold for the method and conditions named. In cells and extracts the contact can be indirect. Some binding calls cover weakened binding; strength is not graded here.

Chains of the proteins cited; added tags and fusions are not shown.
UniProt P46937: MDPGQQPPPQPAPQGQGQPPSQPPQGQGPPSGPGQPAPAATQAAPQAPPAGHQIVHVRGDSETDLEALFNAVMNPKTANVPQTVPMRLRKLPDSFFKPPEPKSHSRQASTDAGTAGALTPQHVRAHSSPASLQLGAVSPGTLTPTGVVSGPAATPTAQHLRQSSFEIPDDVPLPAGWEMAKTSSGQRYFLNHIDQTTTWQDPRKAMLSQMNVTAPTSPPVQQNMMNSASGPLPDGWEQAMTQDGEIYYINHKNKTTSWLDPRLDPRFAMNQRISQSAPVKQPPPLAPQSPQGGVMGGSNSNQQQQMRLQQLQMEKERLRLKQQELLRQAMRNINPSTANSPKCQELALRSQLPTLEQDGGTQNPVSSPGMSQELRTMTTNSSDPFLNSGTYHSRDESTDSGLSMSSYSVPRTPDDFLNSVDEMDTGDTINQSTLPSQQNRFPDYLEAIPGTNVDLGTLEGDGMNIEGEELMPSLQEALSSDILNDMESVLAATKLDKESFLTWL
UniProt O60260: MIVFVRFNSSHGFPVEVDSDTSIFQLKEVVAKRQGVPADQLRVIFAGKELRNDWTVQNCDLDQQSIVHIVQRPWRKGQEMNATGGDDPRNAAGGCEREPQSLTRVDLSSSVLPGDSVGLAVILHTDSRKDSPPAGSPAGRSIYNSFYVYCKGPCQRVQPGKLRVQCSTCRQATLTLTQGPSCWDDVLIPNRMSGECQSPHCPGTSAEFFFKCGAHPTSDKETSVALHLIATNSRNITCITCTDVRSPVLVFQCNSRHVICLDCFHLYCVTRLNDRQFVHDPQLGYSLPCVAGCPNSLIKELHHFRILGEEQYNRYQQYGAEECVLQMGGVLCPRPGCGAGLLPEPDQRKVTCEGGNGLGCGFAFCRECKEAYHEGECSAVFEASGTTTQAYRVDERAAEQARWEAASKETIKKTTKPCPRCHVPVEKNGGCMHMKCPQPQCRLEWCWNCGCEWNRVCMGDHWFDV

Experiments:
Myc-tagged wild-type YAP = Myc-tagged wild-type YAP (UniProt P46937); experiment: co-IP; Flag-tagged wild-type or deletion mutants of PARK2 and Myc-tagged wild-type or deletion mutants of YAP; anti-Flag or anti-Myc agarose beads, washed with PBST three times, western blot
[1] = molecular target: YAP (yes-associated protein) in ESCC cells (UniProt P46937); experiment: co-IP; immuno-precipitation after separation of cytoplasm and nucleus with a subcellular protein fractionation kit; Tubulin and Lamin B1 as fraction controls
[2] = molecular target: YAP (yes-associated protein) in ESCC cells (UniProt P46937); experiment: co-IP; immuno-precipitation from ESCC cells, western blot

With “Flag-tagged wild-type PARK2 (from UniProt O60260 1-465)” the binding (Myc-tagged wild-type YAP) was “binds”.

In the case of “PARK2 (Parkinson disease protein 2) in ESCC cells (from UniProt O60260 1-465)”, the binding [1] is reported as “binds” and the binding [2] is reported as “binds”.
